Amino acid sequences for entries named in this document (tags omitted). Residues count along the entry.
UniProt Q9Y4C0, residues 28-1643: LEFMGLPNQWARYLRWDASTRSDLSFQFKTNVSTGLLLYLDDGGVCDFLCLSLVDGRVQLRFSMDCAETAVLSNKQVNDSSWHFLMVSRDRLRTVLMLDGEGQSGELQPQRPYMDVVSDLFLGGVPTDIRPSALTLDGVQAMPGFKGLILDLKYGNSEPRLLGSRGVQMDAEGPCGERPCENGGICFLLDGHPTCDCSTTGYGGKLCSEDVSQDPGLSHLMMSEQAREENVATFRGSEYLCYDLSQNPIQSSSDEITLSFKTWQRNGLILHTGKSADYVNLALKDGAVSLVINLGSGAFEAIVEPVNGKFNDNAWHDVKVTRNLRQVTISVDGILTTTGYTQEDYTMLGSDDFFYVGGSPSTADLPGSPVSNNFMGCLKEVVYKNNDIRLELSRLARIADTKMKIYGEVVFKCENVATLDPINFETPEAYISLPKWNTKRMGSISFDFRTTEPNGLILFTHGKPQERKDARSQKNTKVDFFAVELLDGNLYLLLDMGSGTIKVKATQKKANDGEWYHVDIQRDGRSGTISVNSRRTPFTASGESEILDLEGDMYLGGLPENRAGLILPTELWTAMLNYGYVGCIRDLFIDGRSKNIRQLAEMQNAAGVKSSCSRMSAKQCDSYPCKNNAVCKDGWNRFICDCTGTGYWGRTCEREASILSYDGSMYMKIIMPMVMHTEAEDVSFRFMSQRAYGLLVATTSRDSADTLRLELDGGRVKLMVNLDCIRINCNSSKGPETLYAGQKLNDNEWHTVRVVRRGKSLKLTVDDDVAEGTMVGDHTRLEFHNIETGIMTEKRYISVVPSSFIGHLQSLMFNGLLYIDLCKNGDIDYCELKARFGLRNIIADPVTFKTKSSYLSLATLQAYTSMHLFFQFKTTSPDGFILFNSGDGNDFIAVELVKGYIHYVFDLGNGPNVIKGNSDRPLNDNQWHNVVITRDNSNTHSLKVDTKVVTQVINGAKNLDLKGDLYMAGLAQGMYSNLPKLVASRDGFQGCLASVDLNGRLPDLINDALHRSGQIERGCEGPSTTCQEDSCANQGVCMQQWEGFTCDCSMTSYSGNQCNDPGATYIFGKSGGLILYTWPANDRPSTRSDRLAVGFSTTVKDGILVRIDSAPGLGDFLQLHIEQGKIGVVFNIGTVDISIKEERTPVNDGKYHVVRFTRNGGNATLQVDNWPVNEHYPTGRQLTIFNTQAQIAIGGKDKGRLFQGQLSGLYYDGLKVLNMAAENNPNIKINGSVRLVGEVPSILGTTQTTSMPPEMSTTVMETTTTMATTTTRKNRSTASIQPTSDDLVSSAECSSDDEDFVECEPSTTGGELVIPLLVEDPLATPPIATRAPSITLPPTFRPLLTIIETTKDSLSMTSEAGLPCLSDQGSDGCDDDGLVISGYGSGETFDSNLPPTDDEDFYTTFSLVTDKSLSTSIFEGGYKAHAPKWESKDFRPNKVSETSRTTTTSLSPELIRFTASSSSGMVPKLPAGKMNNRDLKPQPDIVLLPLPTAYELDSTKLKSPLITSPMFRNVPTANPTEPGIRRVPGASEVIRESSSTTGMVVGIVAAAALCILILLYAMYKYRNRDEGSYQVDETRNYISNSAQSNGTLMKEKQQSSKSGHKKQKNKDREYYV
UniProt Q15418: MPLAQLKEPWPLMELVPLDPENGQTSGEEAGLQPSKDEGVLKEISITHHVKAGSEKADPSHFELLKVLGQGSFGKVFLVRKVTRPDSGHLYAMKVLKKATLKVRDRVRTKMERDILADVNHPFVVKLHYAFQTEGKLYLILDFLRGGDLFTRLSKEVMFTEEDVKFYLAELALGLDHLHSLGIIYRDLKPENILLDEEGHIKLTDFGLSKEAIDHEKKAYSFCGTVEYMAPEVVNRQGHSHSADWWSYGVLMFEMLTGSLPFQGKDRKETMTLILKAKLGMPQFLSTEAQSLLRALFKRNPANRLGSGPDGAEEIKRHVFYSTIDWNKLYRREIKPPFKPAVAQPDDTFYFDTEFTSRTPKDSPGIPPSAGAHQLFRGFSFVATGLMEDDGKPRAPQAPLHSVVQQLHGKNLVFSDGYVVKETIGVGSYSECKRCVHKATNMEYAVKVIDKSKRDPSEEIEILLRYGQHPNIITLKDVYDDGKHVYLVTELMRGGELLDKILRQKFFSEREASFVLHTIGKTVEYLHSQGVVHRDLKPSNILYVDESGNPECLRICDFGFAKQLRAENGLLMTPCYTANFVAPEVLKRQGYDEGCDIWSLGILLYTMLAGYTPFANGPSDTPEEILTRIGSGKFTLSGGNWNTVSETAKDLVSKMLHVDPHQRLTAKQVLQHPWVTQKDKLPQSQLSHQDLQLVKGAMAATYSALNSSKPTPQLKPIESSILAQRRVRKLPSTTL
UniProt P63208: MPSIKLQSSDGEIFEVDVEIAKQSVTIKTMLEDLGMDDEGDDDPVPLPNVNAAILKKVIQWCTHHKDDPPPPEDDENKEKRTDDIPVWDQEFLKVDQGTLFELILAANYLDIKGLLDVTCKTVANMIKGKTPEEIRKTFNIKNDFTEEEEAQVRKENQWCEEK

According to PMC12869240:

Key:
Flag-NRXN3 in ICC cells = Flag-NRXN3 in ICC cells (UniProt Q9Y4C0); test: affinity purification with mass spectrometry; IP from Flag-NRXN3-overexpressing HuCCT1 cells with anti-Flag and anti-caspase-3 antibodies, normal IgG as negative control; LC-MS/MS
[1] = molecular target: T1, endogenous caspase-3 in ICC cells (human (endogenous in HuCCT1 and HuCCT1-R)) (UniProt P42574); test: as above
T1 sequence: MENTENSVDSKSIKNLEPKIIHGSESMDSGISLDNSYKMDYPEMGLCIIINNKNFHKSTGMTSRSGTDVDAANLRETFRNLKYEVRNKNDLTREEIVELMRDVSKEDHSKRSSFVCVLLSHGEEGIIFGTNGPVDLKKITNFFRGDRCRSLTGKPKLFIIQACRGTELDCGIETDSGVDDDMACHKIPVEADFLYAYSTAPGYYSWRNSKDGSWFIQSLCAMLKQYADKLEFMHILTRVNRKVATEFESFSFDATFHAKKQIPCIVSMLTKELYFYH

binding (Flag-NRXN3 in ICC cells) | binding [1] | Substance
binds |  | endogenous RSK1 in ICC cells (from UniProt Q15418 1-735) (enzyme)
 | binds | endogenous Skp1 in HuCCT1 (from UniProt P63208 1-163)

Results are given in words; binding and its absence hold for the method and conditions named. In cells and extracts the contact can be indirect. These calls come from enrichment with a bait or labelling near it, and not all partners need be listed.
